# Measured values as given in PubChem BioAssay.
# The list shows a part of the results, in another mix than the full data. Calls of active or inactive are those of the source. The rule behind the calls is not given here.
# Experiment: chitosan synthesis blockers in C. neoformans – flow cytometry, Cibacron Brilliant Red staining (AID 1347148);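 note: compound exposure lasted three days at 37 degrees C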
# Conditions: Cryptococcus neoformans chitosan, at 107.2 µM, hits give low values
smiles,measurement,value
CN[C@@H]1C[C@H]2O[C@@](C)([C@@H]1OC)n1c3ccccc3c3c4c(c5c6ccccc6n2c5c31)C(=O)NC4,fold fluorescence,inactive: 4.51
